Patent US20160367630A1
These are yes or no findings as the source states them, for the method shown. In cells and extracts the contact can be indirect. Some binding calls cover weakened binding; strength is not graded here.

Tests used:
Mdv1p (budding yeast) [1] = target: T1, Mdv1p (budding yeast) (UniProt P47025); experiment: co-immunoprecipitation from yeast extracts (cyclin C-TAP, Mdv1p-HA), H2O2 stress timecourse
T1 sequence (looked up): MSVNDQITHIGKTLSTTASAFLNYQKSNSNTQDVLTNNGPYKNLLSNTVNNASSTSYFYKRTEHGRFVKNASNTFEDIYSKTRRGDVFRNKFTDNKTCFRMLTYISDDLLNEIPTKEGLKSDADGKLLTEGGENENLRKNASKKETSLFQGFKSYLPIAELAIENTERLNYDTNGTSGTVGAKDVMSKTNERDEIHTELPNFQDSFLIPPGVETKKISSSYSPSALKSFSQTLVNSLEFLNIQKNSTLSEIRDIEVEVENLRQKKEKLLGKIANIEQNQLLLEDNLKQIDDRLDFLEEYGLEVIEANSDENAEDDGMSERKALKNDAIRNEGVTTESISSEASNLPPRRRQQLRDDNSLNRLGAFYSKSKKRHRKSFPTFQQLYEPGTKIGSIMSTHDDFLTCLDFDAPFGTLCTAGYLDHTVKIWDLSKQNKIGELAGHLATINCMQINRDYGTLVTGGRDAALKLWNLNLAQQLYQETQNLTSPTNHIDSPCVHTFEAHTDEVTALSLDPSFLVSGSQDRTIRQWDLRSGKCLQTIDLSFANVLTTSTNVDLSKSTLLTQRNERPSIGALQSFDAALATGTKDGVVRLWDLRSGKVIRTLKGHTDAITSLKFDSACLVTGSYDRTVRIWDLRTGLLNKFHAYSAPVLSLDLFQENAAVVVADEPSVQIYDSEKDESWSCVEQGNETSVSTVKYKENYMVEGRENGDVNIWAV

Mdv1p (budding yeast) [2] = target: T1, Mdv1p (budding yeast); experiment: co-localisation, yeast two-hybrid and co-immunoprecipitation (FIG. 6)
Mdv1p (budding yeast) [3] = target: T1, Mdv1p (budding yeast); experiment: summary of the yeast experiments (co-localisation, two-hybrid, co-immunoprecipitation)
Dnm1p (budding yeast) [4] = target: T2, Dnm1p (budding yeast) (UniProt P54861); experiment: co-immunoprecipitation from yeast extracts (Mdv1p-GFP, Dnm1p-myc), H2O2 stress
T2 sequence (looked up): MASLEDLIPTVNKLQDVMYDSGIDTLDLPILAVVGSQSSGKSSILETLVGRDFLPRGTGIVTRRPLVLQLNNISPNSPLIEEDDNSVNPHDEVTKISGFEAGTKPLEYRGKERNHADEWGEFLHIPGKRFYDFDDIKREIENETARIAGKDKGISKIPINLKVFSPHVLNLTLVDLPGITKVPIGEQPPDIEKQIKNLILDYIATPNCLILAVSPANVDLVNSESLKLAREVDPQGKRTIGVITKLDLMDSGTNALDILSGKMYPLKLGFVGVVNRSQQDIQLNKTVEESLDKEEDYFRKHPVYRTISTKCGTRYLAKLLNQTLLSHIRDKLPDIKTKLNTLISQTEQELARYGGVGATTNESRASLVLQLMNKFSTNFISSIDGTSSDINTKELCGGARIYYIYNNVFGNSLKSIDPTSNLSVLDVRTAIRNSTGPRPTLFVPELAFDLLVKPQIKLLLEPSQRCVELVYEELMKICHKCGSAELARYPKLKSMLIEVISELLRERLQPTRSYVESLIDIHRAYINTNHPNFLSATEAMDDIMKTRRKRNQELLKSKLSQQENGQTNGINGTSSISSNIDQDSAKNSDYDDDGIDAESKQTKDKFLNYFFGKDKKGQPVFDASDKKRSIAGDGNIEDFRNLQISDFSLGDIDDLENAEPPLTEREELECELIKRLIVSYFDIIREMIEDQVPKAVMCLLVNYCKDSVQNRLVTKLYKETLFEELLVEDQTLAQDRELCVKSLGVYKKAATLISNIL

Dnm1p (budding yeast) [5] = target: T2, Dnm1p (budding yeast); experiment: co-immunoprecipitation from extracts of wild type and cnc1 deletion yeast (Mdv1p-GFP, Dnm1p-myc)

B1: cyclin C (yeast; CNC1 gene product) (protein, budding yeast, UniProt P47821 1-323, looked up)
chain: MSGSFWTSTQRHHWQYTKASLAKERQKLWLLECQLFPQGLNIVMDSKQNGIEQSITKNIPITHRDLHYDKDYNLRIYCYFLIMKLGRRLNIRQYALATAHIYLSRFLIKASVREINLYMLVTTCVYLACKVEECPQYIRTLVSEARTLWPEFIPPDPTKVTEFEFYLLEELESYLIVHHPYQSLKQIVQVLKQPPFQITLSSDDLQNCWSLINDSYINDVHLLYPPHIIAVACLFITISIHGKPTKGSSLASAASEAIRDPKNSSSPVQIAFNRFMAESLVDLEEVMDTIQEQITLYDHWDKYHEQWIKFLLHTLYLRPASAI
In the case of B1, the binding (Mdv1p (budding yeast) [1]) is reported as “binds”, the binding (Mdv1p (budding yeast) [2]) is reported as “binds” and the binding (Mdv1p (budding yeast) [3]) is reported as “binds”.

B2: Mdv1p (protein, budding yeast, UniProt P47025 1-714, looked up)
chain: MSVNDQITHIGKTLSTTASAFLNYQKSNSNTQDVLTNNGPYKNLLSNTVNNASSTSYFYKRTEHGRFVKNASNTFEDIYSKTRRGDVFRNKFTDNKTCFRMLTYISDDLLNEIPTKEGLKSDADGKLLTEGGENENLRKNASKKETSLFQGFKSYLPIAELAIENTERLNYDTNGTSGTVGAKDVMSKTNERDEIHTELPNFQDSFLIPPGVETKKISSSYSPSALKSFSQTLVNSLEFLNIQKNSTLSEIRDIEVEVENLRQKKEKLLGKIANIEQNQLLLEDNLKQIDDRLDFLEEYGLEVIEANSDENAEDDGMSERKALKNDAIRNEGVTTESISSEASNLPPRRRQQLRDDNSLNRLGAFYSKSKKRHRKSFPTFQQLYEPGTKIGSIMSTHDDFLTCLDFDAPFGTLCTAGYLDHTVKIWDLSKQNKIGELAGHLATINCMQINRDYGTLVTGGRDAALKLWNLNLAQQLYQETQNLTSPTNHIDSPCVHTFEAHTDEVTALSLDPSFLVSGSQDRTIRQWDLRSGKCLQTIDLSFANVLTTSTNVDLSKSTLLTQRNERPSIGALQSFDAALATGTKDGVVRLWDLRSGKVIRTLKGHTDAITSLKFDSACLVTGSYDRTVRIWDLRTGLLNKFHAYSAPVLSLDLFQENAAVVVADEPSVQIYDSEKDESWSCVEQGNETSVSTVKYKENYMVEGRENGDVNIWAV
B2 was tested, and the binding (Dnm1p (budding yeast) [4]) was “binds” and the binding (Dnm1p (budding yeast) [5]) was “binds”.
